{"sequences": {"note": "Amino acid sequences for entries named in this document (tags omitted).", "UniProt Q03164, whole entry, looked up": "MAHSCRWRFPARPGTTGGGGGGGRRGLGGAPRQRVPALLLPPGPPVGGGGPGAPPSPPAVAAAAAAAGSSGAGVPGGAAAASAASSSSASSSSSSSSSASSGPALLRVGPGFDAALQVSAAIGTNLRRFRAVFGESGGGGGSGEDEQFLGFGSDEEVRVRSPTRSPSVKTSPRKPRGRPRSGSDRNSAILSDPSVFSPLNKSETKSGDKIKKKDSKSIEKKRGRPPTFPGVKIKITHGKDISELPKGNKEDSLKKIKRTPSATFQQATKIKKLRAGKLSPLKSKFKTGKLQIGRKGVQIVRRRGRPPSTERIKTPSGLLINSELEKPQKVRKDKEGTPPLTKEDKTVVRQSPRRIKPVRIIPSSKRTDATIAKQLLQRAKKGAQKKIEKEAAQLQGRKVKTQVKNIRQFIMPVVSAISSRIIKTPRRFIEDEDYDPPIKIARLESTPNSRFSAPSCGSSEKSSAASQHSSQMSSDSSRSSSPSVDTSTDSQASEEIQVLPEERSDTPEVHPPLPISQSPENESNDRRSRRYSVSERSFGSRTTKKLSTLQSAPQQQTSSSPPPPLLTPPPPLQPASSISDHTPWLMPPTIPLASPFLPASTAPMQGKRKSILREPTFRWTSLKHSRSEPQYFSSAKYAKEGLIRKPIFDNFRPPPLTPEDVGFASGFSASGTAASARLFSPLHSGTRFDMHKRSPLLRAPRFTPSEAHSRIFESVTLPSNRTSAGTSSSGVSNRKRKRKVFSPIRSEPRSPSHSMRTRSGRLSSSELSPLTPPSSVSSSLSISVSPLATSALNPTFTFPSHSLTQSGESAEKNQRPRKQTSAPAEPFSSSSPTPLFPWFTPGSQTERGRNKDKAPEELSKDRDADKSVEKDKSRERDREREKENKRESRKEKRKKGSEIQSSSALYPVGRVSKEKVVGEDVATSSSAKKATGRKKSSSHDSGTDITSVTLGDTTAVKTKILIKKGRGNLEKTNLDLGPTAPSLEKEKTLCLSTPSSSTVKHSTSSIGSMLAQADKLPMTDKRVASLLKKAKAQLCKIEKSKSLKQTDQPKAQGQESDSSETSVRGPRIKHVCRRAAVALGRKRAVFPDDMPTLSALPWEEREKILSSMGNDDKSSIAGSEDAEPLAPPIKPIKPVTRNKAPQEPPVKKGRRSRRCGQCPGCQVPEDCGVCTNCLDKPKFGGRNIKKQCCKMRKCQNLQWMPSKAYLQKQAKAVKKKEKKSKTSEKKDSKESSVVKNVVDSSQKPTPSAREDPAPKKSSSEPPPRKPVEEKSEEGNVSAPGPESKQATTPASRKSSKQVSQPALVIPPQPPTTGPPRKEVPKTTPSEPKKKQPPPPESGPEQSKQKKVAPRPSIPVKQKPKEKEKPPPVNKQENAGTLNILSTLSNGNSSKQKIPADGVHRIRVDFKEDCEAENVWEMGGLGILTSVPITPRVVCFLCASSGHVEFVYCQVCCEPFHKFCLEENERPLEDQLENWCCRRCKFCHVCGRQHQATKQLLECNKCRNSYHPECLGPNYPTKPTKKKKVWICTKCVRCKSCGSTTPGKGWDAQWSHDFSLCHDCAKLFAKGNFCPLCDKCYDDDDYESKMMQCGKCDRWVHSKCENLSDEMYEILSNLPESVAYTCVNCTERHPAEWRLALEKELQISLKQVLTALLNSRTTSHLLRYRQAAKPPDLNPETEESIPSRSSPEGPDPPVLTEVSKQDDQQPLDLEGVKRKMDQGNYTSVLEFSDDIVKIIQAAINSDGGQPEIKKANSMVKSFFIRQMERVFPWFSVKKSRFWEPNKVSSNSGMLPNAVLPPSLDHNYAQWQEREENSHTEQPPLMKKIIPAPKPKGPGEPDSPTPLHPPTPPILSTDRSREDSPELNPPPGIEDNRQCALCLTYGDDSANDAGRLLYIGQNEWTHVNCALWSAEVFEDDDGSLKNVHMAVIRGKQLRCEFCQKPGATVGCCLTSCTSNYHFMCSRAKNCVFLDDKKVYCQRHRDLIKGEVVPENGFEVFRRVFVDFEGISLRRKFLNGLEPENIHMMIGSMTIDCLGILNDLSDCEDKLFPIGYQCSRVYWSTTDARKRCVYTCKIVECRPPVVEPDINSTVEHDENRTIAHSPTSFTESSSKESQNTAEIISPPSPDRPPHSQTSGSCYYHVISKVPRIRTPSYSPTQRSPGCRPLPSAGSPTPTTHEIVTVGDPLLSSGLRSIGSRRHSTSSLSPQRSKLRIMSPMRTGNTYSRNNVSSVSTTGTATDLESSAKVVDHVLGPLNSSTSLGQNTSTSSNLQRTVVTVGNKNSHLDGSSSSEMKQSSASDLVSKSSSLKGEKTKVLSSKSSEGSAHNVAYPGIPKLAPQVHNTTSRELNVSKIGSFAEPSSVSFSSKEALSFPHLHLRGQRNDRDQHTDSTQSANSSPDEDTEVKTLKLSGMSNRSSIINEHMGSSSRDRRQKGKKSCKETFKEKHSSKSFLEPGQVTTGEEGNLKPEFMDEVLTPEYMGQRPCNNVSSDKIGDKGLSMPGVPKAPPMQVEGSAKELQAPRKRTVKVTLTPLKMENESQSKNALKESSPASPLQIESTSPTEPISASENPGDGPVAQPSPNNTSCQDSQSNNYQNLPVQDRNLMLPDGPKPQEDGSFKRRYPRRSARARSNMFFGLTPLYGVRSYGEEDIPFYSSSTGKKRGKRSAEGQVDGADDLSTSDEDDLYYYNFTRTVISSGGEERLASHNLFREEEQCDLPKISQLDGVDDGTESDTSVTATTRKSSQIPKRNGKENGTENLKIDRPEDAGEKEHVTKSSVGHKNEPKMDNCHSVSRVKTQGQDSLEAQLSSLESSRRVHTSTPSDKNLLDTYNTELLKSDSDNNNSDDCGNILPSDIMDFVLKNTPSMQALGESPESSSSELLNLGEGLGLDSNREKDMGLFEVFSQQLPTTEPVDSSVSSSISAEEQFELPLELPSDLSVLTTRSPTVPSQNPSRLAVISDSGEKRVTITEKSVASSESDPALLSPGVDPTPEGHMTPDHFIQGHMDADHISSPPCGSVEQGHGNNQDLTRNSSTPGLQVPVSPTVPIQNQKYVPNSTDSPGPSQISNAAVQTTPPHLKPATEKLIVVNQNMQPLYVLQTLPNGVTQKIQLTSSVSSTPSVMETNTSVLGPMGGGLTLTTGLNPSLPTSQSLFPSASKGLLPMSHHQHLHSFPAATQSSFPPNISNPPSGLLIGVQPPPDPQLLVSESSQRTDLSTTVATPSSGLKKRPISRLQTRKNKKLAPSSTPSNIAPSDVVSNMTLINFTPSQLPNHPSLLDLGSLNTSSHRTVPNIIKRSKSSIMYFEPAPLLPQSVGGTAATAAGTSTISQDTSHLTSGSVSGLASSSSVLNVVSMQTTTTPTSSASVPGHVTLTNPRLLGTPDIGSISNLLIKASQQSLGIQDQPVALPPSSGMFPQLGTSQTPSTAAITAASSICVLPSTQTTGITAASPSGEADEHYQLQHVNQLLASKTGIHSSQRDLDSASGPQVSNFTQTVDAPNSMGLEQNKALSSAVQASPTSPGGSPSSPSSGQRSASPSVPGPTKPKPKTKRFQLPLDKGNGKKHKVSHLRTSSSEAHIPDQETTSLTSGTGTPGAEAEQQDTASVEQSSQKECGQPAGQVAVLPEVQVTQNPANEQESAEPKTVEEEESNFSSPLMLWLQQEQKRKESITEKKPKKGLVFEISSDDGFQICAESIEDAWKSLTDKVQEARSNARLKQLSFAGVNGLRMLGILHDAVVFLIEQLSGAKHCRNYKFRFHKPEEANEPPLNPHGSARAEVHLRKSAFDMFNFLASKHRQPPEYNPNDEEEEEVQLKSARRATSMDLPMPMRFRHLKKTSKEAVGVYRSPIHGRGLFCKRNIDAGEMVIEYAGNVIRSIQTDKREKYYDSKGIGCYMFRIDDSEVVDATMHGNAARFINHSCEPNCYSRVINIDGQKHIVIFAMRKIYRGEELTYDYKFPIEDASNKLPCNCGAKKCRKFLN"}, "source": "PubChem BioAssay AID624162", "about": "(National Center for Advancing Translational Sciences (NCATS), 2012)", "note": "Inconclusive means that the source gave no clear call. Such entries were picked first, then a sample of the others. Potencies of inconclusive entries are doubtful fits and often do not repeat. Activity calls are given as the source filed them. The call rests on the fitted dose curve; in most records, active means well fitted inhibition curve with a large enough effect; inconclusive means small, poorly fitted or top-dose-only effect; inactive means no such curve, though single readings can be large or run the other way.", "data": [{"molecular_target": "Histone-lysine N-methyltransferase 2A (Homo sapiens) (UniProt Q03164)", "experiment": "qHTS Fluorescence Polarization (FP) Assay for Inhibitors of MLL CXXC domain - DNA interaction: HTRF Assay", "settings": "MLL CXXC-DNA binding, biochemical", "text": "The MLL (Mixed Lineage Luekemia) gene is involved in chromosomal translocation that results in either acute lymphoid leukemia (ALL) or acute myeloid leukemia (AML). Chromasomal translocation of MLL gene is responsible for the fusion of N-terminal MLL to more than 60 different partner genes in frame. Many of the MLL partner genes contain transcription activation domains or function as transcriptional activators. Despite the heterogeneity of fusion partners, the N-terminus of MLL fusion proteins always consists of the N-terminal menin binding motif and the CXXC domain. The MLL-CXXC domain specifically recognizes unmethylated CpG sequences of the HOX-A gene. Disruption of the MLL-CXXC and HOX-A gene interaction leads to down regulation of HOX-A gene expression and may potentially reverse leukemogenesis. We have miniaturized and optimized an in-vitro assay to screen for inhibitors of the MLL-CXXC domain and HOX-A DNA interaction, which could have utility in MLL fusion leukemias.\nThis is a hit validation assay that tests this hits identified in the primary screen in this secondary screen, using an HTRF a read-out.\nNIH Molecular Libraries Probe Production Network [MLPCN]\nNIH Chemical Genomics Center [NCGC]\nPI Name: John Bushweller, University of Virgina\nOne microliter of 7microM GST-MLL-CXXC solution prepared in assay buffer (50 mM TRIS-HCl pH 7.5, 50 mM NaCl, 1 mM DTT, 0.05% BSA) was dispesed into a 1536 well plate. Compound solution and unlabeled HOX-A9 was tranferred into the assay plate using the Kalypsys 1536-pin tool and incubated at room temperature for 5 min. One microL of 50nM Biotinylated-HOX-A9 solution prepared in assay buffer was dispensed into the assay plate; centrifuge for 30 seconds at 1000 RPM; and incubated for 30 min at room temperature. Next, 3 microL/well detection reagent mixture of 2.8 nM Eu3+-Cryptate-anti-GST-AB and 100 nM Streptavidin linked XL665 (Cisbio, MA) was added. RT-FRET read was taken after 60min of room temp incubation using the PerkinElmer Envision plate reader equipped with Eu3+ HTRF optimized filter set; EX 337nm / EM […].", "values": [{"smiles": "Cc1cc(/C=C2\\C(=O)NC(=O)N(Cc3ccccc3Cl)C2=O)c(C)n1-c1ccc(C(=O)O)cc1", "Potency": "inconclusive: 243 µM [inhibitor, single point]"}, {"smiles": "O=C(O)Cn1cc(/C=C2\\C(=O)NC(=O)N(c3ccc(F)cc3)C2=O)c2ccccc21", "Potency": "inconclusive: 122 µM [inhibitor, single point]"}, {"smiles": "CN1C(=O)C(=Cc2ccccc2OCc2ccc(C(=O)O)cc2)C(=O)N(C)C1=O", "Potency": "active: 61.1 µM"}]}]}
